For experiment [1], the target named is Paracoccidioides lutzii recombinant isocitrate lyase (Paracoccidioides lutzii) (UniProt C1H8F5). The experiment in a line: affinity purification with mass spectrometry; recombinant ICL immobilised on Ni-NTA resin, incubated 2 h with the soluble protein extract of P. lutzii yeast cells; washed, eluted, tryptic digestion, nanoUPLC-HDMS^E; proteins also found with resin alone excluded; only the target purified.

Protein sequences, listed by entry. Tags and fused reporters are not part of them. Lines headed by an entry give the natural chain unless they say otherwise; changes in a name come on top.
UniProt C1H8F5: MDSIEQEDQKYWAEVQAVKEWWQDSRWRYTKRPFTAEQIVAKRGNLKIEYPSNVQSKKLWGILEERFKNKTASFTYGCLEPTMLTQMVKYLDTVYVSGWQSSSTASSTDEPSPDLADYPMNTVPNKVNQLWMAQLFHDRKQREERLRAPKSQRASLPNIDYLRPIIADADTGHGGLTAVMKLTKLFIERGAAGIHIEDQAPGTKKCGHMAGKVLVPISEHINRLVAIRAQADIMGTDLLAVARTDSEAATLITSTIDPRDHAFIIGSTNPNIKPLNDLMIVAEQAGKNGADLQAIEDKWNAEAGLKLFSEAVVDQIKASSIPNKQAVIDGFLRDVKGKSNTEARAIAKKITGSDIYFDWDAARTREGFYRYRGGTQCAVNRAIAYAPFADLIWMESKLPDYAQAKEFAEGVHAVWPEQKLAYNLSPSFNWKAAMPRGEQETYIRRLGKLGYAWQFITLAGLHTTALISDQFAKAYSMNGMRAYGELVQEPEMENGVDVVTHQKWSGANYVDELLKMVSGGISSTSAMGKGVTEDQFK
UniProt C1H483: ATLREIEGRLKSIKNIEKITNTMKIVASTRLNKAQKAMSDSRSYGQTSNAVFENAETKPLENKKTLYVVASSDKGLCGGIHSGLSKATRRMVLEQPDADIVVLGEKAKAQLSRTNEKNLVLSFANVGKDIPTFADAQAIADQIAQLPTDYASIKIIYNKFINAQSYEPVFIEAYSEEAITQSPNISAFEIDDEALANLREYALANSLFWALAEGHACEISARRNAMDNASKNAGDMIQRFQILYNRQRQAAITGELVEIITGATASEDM
UniProt C1H6Y5: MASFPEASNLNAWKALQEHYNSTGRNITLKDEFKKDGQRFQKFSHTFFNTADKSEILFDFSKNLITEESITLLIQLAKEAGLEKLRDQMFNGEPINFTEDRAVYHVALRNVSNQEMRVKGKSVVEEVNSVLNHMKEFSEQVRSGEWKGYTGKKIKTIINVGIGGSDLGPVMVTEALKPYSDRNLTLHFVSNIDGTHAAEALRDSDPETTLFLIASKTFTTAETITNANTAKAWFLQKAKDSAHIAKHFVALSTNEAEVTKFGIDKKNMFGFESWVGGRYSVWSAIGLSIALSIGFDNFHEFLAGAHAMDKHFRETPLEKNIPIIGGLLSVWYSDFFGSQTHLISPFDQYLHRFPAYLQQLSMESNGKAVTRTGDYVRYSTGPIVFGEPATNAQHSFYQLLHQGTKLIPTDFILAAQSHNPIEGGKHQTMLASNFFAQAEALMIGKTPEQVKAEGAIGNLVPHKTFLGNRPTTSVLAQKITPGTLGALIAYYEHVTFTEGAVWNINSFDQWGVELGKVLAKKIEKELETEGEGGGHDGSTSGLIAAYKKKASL

For experiment [2] the target is unchanged. The experiment can be described thus: affinity purification with mass spectrometry; recombinant ICL immobilised on Ni-NTA resin, incubated 2 h with the soluble protein extract of P. lutzii mycelium; washed, eluted, tryptic digestion, nanoUPLC-HDMS^E; proteins also found with resin alone excluded; only the target purified.
The target is the same in experiment [3]. The experiment in a line: affinity purification with mass spectrometry; recombinant ICL immobilised on Ni-NTA resin, incubated 2 h with the soluble protein extract of P. lutzii mycelium-to-yeast transition cells; washed, eluted, tryptic digestion, nanoUPLC-HDMS^E; proteins also found with resin alone excluded; only the target purified.

No constants are given. Whether binding was seen depends on the method and setting. In cells and extracts the contact can be indirect. These calls come from enrichment with a bait or labelling near it, and not all partners need be listed.

For the molecule “ATP synthase gamma chain (from UniProt C1H483)”, the binding entry in experiment [1] was “binds”.

With “glucose-6-phosphate isomerase (from UniProt C1H6Y5)”, the binding entry in experiment [1] is recorded as “binds”.

B1: fructose-bisphosphate aldolase (protein, UniProt Q96UH7 1-360)
chain: MGVKDILSRKTGVIVGDDVLRLFQHAQEKVFAIPAINVTSSSTVVAALEAARDKNSPIILQVSQGGAAFFAGKGVPNGKQEASVAGAIAAAHYIRSIAPSYGIPVVLHTDHCAKKLLPWLDGMLDADECYFKLHNEPLFSSHMIDLSEESVEWNIETTAKYLKRAAPMKQWLEMEIGITGGEEDGVNNESVDNNSLYTQPEDIYTIYKTLSAISPYFSIAAGFGNVHGVYKPGNVRLHPELLSKHQAYVKEKTGSSKNKPVYLVFHGGSGSTKAEFKEAISYGVVKVNLDTDLQYAYLSGVRDFVLKKKDYLMSAVGNPEGEDKPNKKYFDPRVWIREGEKTMSARVQEAFDDFNTSNQL
Consider B1, for which the binding entry in experiment [1], in experiment [2] and in experiment [3] was “binds” in each case.

B2: isocitrate dehydrogenase subunit 1 (protein, UniProt C1GQR1 1-388)
chain: MFSLRTAQSAQSLFCTIAKNSSTCLSRSSIATRTFATVQSDIFKPTKYGGKYTVTLIPGDGIGAEVAESVKTIFKADNVPIEWEQVDVSGVDVGNKRSEDLFKESIASLRRNKLGLKGILHTPVEISGHQSFNVALRQELDIYASIILIKNIPGYKTRHDNVDLCIIRENTEGEYSGLEHESVSGVVESLKIITRAKSERIAKFAFSFALANNRKKVTCIHKANIMKLADGLFRSTFHKVAESFPTLEANDMIVDNASMQAVSRPQQFDVMVMPNLYGGILSNVGAALVGGPGIVPGCNMGREVAVFEPGCRHVGLDIKGKDQANPTALILSGSMLLRHLGLDEHANRISKAVYDVIGEGVVRTRDMGGQATTNEFTRAVLDKMEAAL
As to B2, the binding result in experiment [1] is on record as “binds”.

B3: triosephosphate isomerase (protein, UniProt Q96VN5 1-249)
chain: MPRKFFVGGNFKMNGTAKSITHIITNLNSAKLDPSTEIVIAPPAIYLVLARQLANGQVAVSAQNVFDKPNGAFTGELSVEQLRDEKITWTLAGHSERRVLLREDDEFVARKTKAAINGGLNVILCIGESLEEREAGKTIDVVTRQLDAVAEEVSPAEWNKVVIAYEPIWAIGTGKVATTEQAQEVHASIRKWLNEKISPEAAENIRVIYGGSVTENNCRDLAAQPDVDGFLVGGASLKPAFVDIINARL
For B3, the binding result in experiment [1], in experiment [2] and in experiment [3] was “binds” each time.
